Measured values as given in article PMC4021451 (Journal of medicinal chemistry, 2012).

Columns and labels:
[1] = system: A2780 (ovarian carcinoma) cells; assay: EZ4U viability assay in resistance models, A2780; assay type: cell-based; conditions: read-out: IC50 A2780, 96 h exposure
Outline: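 Cells were seeded at 2 × 10^3 per well and allowed to recover for 24 h. Test compound was then added in growth medium and exposed for 96 h. Viable cell proportion was read with the EZ4U kit. Media, all with 10% FBS: SW1573 and 2R120 in DMEM, A2780 and A2780/cis in RPMI 1640, P31 in MEM. Cells were grown at 37 °C in 5% CO2.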

[2] = system: A549 (non-small-cell lung carcinoma) cells; assay: MTT cytotoxicity assay, A549 cells; assay type: cell-based, human; conditions: read-out: IC50 A549, 96 h exposure, mean ± SD
Outline: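 Cells were seeded in MEM at 1.5 × 10^3 (CH1), 4.0 × 10^3 (A549) or 2.5 × 10^3 (SW480) per well, given 24 h to resume exponential growth, then exposed to serial dilutions for 96 h. Medium was replaced with RPMI 1640 plus MTT in PBS (5 mg/mL solution) for 4 h, then DMSO. OD was read at 550 nm. At least three independent experiments were run, with triplicates per concentration.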

Structure (SMILES): N.N.[Cl][Pt][Cl] [cisplatin]
- IC50 [1]: 700 ± 20 nM
- IC50 [2]: 1300 ± 400 nM
